Assay results published in PubChem BioAssay AID651899 (Broad Institute, 2012).
The shares of active, inactive and inconclusive entries below differ from those in the screen. Active and inactive are the calls of the source. No rule for the calls is given here.

Experiment: cytotoxicity in HEK293 cells, dose response, cytotoxicity control, cell-based, plate reader, cherry-pick (AID 651899);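 also: cells exposed to compound for 48 hours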
Conditions: at 26 µM (top of the series) unless noted
For `Fc1ccc2[nH]c3c(NCCN4CCOCC4)ncnc3c2c1`, the activity change, negative = cytotoxicity was inconclusive: 44.4% [at 12 µM].
In the case of `COc1cc(OC)c(C(=O)Nc2cccnc2)cc1OC`, the activity change, negative = cytotoxicity was inconclusive: 38%.
With `CC(C)(C)c1cc(C(=O)Nc2cccnc2)cc(C(=O)Nc2cccnc2)c1` the activity change, negative = cytotoxicity was inactive: -6.15%.
With `CCC(=O)N1CC[C@@H]2[C@@H](CO)N(C)c3ccc(-c4cccc(F)c4)cc3[C@@H]21` the activity change, negative = cytotoxicity was inconclusive: -38.9% [at 13.5 µM].
With `CCc1nn(CC(=O)N2CCN(Cc3ccc4c(c3)OCO4)CC2)c(=O)c2cc3occc3n12` the activity change, negative = cytotoxicity was inactive: 7.76%.
